# Data as given in PubChem BioAssay AID504786 (Drosophila RNAi Screening Center, 2011)
# Screen: 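Positive regulators of HIF-driven reporter output in Drosophila cells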 (primary screen)
# System: Drosophila S2 cells with a stable HIF luciferase reporter
# Reagent: long dsRNA against Drosophila genes, about 0.2 µg dsRNA per well of a 384-well plate
# Timing: three days of knock-down, then 20 h of DFO before reading
# Treatment: desferrioxamine (DFO) at 100 µM, an iron chelator that mimics hypoxia, for 20 h
# Measured: 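Firefly luciferase driven by the mouse ldh-a hypoxia-response element, measured after 20 h of 100 µM DFO; z-scores per plate, higher means more signal lost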
# Direction: z-score: higher = stronger loss of HIF reporter signal
# The deposit covers about 21,000 reagents; below is an unselected part of those that have a named target and a result. 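Primary screen; positive scores mean lost reporter signal, so the sign may be inverted from the usual convention.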 A plus sign joins genes that one reagent is predicted to hit.
predicted target,dsRNA,"z-score, replicate 1","z-score, replicate 2","z-score, replicate 3","z-score, replicate 4"
galla-2,DRSC10936,-0.3,-0.2,-0.6,-0.4
CG7094,DRSC03005,-0.2,-0.1,,
Try29F,DRSC03466,-0.3,-0.4,,
CG32454,DRSC11652,-0.3,-0.5,,
Obp99c,DRSC16262,0,-0.1,,
snoRNA:Me28S-C3420b + RpS11,DRSC07396,-0.2,-0.3,,
TBC1d7,DRSC15985,-0.6,-0.4,,
CG4041,DRSC18339,-0.3,0,,
CG4586,DRSC18373,-0.3,-0.5,,
Mcad,DRSC09871,-0.3,-0.4,,
Tsp2A,DRSC18584,-0.3,0.4,,
CG7785,DRSC16311,-1,-0.6,,
CG30203,DRSC06690,0.1,-0.1,,

4 entries from above, arranged by “z-score, replicate 2”, high to low.
predicted target,dsRNA,"z-score, replicate 1","z-score, replicate 2","z-score, replicate 3","z-score, replicate 4"
CG7094,DRSC03005,-0.2,-0.1,,
galla-2,DRSC10936,-0.3,-0.2,-0.6,-0.4
Try29F,DRSC03466,-0.3,-0.4,,
CG32454,DRSC11652,-0.3,-0.5,,

Additional records follow:
predicted target,dsRNA,"z-score, replicate 1","z-score, replicate 2","z-score, replicate 3","z-score, replicate 4"
CG13055,DRSC09936,-0.2,0.2,,
CG6996,DRSC10758,-0.2,0,,
CG3793,DRSC01982,-0.5,-0.6,,
CG18754,DRSC15387,0,1,,
CG6972,DRSC16159,-0.4,0.5,,
Cys,DRSC16637,-0.3,-0.2,,
CG4558,DRSC18369,-0.4,-0.6,,
aPKC,DRSC05515,-0.2,-0.1,,
aPKC,DRSC07639,-0.3,-0.1,,
Task7,DRSC16477,-0.3,-0.5,,
CG32457,DRSC11596,-0.4,0,-0.5,0.1
CG17026,DRSC10237,-0.3,-0.3,,
CG13579,DRSC04215,-0.3,-0.1,,
Vap33,DRSC18384,-0.3,-0.2,,
Pfdn5,DRSC16183,-0.3,-0.8,,
Taf13,DRSC02106,0.3,0.5,,
CG7168,DRSC16208,-0.2,-0.4,,
CG15446,DRSC20518,-0.4,-0.2,,
Gr28b,DRSC02291,-0.3,-0.2,,
Gr28b,DRSC02292,-0.1,-0.4,,
Shc,DRSC11284,0.4,0.7,,
